Test results as given in paper PMC7954848.
Results are given in words; binding and its absence hold for the method and conditions named. Binding seen in cells or lysates may run through a third protein. Some entries that bind do so weakly or less than the wild type.

Amino acid sequences for entries named in this document (tags omitted).
UniProt Q9UBF6: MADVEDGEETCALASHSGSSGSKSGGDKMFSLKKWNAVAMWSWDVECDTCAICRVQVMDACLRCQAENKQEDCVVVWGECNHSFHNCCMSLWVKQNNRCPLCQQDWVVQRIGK
UniProt Q93034: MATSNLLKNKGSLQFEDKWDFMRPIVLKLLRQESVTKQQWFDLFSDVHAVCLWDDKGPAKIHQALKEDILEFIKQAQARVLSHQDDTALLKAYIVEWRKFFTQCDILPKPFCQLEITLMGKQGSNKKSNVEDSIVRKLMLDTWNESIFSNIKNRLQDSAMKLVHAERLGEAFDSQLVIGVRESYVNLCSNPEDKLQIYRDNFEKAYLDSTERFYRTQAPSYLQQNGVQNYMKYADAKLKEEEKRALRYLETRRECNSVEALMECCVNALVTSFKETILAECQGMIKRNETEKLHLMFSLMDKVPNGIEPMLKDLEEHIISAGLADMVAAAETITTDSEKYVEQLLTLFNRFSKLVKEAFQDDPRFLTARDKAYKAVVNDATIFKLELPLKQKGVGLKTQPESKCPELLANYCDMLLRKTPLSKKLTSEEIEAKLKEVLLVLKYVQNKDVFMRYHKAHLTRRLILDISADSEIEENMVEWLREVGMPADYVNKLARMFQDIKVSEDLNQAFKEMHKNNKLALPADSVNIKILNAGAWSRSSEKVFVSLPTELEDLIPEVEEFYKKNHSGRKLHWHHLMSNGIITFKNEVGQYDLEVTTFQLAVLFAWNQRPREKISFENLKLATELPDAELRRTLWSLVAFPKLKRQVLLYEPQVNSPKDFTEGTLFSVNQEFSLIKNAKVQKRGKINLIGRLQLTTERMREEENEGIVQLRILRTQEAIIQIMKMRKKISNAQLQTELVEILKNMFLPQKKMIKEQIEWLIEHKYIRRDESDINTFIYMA

Columns and labels:
[1] = target: T1, PRDX1 (human (endogenous in HCT116 and DLD1)) (UniProt Q06830); assay: co-IP; anti-PRDX1 immunoprecipitate of CRC cells (Figs. S7 and S8); cell line not given
T1 sequence: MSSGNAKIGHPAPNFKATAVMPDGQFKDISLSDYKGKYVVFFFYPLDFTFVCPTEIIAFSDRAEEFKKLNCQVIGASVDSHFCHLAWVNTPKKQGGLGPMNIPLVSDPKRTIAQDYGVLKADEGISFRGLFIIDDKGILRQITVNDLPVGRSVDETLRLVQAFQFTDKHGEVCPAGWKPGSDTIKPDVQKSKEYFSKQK

[2] = target: T1, PRDX1 (human (endogenous in HCT116 and DLD1)); assay: co-IP; HCT116 and DLD1 lysates (mild RIPA lysis buffer) precipitated with anti-PRDX1 or IgG control antibody overnight, then Protein A + G Agarose at 4 °C for 4 h; endogenous proteins detected by Western blot
[3] = target: T2, Nedd8-conjugating enzyme UBE2F (human (endogenous in HCT116 and DLD1)) (UniProt Q969M7); assay: co-IP; lysates of HCT116 cells transfected with sh-PRDX1 or control, precipitated with anti-UBE2F or anti-CUL5 antibody, then Protein A + G Agarose; Western blot
T2 sequence: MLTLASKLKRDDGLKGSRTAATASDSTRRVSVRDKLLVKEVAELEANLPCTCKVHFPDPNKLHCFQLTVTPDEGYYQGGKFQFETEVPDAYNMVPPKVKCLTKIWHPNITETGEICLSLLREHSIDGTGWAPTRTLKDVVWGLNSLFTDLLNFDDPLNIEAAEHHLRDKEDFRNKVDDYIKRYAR

Row | binding [1] | binding [2] | binding [3] | Substance
1 | binds | – | – | SAG (RNF7) (from UniProt Q9UBF6 1-113)
2 | – | binds | binds | cullin-5 (from UniProt Q93034 1-780)
